Source: patent publication US20210205403A1
These are yes or no findings as the source states them, for the method shown. Some binding calls cover weakened binding; strength is not graded here.

The chains behind the UniProt entries cited, without tags or fusion partners. Where a name states a change or a piece, a line headed by the entry shows the natural chain unless it says otherwise. A line that says so, or that is headed by a name, gives the form on record, which may keep a tag or linker.
UniProt Q00987: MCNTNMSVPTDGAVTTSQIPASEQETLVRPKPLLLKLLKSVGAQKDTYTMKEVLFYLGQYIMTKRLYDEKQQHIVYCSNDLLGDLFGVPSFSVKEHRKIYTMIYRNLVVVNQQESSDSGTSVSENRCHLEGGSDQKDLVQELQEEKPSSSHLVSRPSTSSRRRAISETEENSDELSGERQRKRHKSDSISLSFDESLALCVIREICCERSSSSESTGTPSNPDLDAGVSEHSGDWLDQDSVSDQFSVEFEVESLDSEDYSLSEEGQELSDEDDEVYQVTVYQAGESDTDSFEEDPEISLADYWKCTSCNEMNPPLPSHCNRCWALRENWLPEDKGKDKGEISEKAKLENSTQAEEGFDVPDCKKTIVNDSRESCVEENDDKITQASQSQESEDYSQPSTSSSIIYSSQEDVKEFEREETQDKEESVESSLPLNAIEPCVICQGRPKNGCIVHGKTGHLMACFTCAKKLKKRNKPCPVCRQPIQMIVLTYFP
Full length HDM-2 with the sequence Cys-Ile-Leu-Lys (CAAX sequence) (Q00987, form named): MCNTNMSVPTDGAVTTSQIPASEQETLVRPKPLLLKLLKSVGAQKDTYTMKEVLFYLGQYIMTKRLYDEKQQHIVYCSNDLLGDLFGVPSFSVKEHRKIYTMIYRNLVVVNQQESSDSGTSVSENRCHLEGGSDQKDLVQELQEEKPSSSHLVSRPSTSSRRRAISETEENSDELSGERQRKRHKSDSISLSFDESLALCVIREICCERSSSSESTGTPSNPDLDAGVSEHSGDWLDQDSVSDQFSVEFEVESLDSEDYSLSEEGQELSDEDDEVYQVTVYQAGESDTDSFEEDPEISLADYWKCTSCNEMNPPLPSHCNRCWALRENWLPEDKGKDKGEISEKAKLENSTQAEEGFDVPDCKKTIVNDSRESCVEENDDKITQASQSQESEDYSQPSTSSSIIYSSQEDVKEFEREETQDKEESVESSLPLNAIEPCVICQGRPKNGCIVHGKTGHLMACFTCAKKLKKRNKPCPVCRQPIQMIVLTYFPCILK

Key:
[1] = molecular target: Full length HDM-2 with the sequence Cys-Ile-Leu-Lys (CAAX sequence) (human) (UniProt Q00987); experiment: confocal microscopy of transfected MCF-10-2A cells
[2] = molecular target: Full length HDM-2 with the sequence Cys-Ile-Leu-Lys (CAAX sequence) (human) (UniProt Q00987); experiment: confocal microscopy of MCF-10-2A cells transfected with full-length HDM-2-CAAX, stained with DO-1 and anti-HDM-2 antibody plus fluorescent secondary antibodies
[3] = molecular target: HDM-2 in the cancer cell membrane (human) (UniProt Q00987); experiment: confocal microscopy of PNC-27-treated cancer cells, FITC-DO-1 (green) and red-labelled anti-HDM-2 antibody; yellow overlap in the membrane

Measured: binding

B1: PNC-27 (p53 aa12-26-MRP) (peptide)
peptide: PPLSQETFSDLWKLLKKWKMRRNQFWVKVQRG
binds: all assays above
